Data taken from publication PMC7555897.
These are yes or no findings as the source states them, for the method shown. Binding seen in cells or lysates may run through a third protein. Some results given as binding are weak or reduced against the parent protein; the word gives no strength.

By UniProt entry, the sequences of proteins in these tests, tags left out.
UniProt Q9BXW9: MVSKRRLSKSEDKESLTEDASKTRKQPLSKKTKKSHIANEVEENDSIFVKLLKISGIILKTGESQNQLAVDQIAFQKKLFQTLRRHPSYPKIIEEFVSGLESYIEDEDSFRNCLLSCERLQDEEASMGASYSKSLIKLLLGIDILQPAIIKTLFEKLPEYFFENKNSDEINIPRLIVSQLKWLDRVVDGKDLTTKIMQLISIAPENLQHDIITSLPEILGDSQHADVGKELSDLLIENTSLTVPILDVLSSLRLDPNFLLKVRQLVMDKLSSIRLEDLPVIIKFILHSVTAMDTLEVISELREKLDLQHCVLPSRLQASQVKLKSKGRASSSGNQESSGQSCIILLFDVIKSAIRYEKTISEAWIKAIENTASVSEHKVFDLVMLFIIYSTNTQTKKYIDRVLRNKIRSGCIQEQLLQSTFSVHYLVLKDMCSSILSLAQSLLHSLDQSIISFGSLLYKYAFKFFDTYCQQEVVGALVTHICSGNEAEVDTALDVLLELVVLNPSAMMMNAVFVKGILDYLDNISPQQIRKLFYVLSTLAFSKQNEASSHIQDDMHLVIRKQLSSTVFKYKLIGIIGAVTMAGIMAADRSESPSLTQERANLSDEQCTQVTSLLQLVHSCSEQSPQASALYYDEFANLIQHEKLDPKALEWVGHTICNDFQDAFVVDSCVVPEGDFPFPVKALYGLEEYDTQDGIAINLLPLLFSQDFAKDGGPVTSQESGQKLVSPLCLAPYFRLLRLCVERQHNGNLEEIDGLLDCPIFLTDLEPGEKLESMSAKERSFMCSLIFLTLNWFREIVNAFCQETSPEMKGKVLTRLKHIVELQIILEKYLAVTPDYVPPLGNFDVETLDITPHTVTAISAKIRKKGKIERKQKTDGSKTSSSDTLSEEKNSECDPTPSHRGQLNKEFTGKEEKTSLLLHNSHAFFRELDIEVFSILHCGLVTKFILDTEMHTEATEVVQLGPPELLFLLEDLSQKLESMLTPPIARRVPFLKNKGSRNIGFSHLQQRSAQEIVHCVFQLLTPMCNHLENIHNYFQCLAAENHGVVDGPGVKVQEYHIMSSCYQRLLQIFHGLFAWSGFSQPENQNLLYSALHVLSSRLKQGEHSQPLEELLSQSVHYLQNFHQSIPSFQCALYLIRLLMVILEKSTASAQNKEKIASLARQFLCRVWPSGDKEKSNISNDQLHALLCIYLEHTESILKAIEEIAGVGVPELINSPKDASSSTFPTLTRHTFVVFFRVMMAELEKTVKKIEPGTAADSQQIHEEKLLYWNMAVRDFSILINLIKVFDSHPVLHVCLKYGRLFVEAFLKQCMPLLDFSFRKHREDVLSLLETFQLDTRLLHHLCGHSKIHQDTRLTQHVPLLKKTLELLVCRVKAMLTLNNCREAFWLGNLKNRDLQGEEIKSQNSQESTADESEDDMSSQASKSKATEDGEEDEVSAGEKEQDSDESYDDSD
UniProt Q9NVI1: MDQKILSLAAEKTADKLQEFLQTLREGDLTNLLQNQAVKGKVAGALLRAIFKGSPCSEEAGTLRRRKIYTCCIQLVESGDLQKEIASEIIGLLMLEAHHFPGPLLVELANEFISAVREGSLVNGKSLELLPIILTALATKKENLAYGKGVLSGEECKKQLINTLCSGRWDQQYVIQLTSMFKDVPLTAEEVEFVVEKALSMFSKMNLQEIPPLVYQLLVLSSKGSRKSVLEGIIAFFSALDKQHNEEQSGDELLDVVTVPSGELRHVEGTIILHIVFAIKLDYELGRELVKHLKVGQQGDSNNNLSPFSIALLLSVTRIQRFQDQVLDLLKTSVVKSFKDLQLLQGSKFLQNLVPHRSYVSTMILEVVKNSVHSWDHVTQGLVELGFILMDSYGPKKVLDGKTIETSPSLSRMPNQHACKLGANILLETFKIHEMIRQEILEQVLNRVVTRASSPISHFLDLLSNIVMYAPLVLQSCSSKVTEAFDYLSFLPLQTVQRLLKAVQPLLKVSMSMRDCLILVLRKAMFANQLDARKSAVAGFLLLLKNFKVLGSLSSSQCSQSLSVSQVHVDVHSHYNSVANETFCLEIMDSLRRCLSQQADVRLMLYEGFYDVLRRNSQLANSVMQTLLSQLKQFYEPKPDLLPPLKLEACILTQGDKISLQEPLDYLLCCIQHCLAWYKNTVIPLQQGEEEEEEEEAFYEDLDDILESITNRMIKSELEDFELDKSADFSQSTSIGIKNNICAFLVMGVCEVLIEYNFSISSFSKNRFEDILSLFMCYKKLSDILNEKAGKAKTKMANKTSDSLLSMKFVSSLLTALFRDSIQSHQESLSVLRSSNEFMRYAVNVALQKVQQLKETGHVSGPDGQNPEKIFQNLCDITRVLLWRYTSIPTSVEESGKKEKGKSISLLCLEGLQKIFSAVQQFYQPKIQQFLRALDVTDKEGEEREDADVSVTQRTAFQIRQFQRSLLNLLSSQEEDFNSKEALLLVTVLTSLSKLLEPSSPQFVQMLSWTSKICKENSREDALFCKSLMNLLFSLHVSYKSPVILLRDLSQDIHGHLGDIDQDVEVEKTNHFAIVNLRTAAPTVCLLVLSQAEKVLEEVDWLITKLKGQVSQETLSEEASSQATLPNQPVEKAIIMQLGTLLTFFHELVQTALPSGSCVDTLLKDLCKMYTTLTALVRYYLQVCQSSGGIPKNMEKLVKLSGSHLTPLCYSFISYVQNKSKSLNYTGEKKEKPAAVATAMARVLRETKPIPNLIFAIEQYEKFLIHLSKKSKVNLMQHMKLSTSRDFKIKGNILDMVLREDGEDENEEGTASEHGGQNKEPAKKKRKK

Key:
[1] = molecular target: FLAG-p62 (p62/SQSTM1), expressed in H1299 cells (UniProt Q13501); test: co-IP; H1299 cells transfected with siRNA oligos (control or RPS27L), then mock vector or FLAG-p62 for 48 h, treated with CQ (50 µM) for 24 h; IP with FLAG beads, immunoblot of endogenous proteins
[2] = molecular target: FLAG-p62 (p62/SQSTM1), expressed in 293 cells (UniProt Q13501); test: co-IP; 293 cells co-transfected with MYC-tagged FANCD2 and FANCI and FLAG-p62 for 48 h; IP with FLAG beads, immunoblot

| binding [1] | binding [2] | Substance |
| --- | --- | --- |
| binds | – | FANCD2, endogenous in H1299 cells (from UniProt Q9BXW9 1-1451) |
| binds | – | FANCI, endogenous in H1299 cells (from UniProt Q9NVI1 1-1328) |
| – | binds | MYC-tagged FANCD2 (from UniProt Q9BXW9 1-1451) |
| – | binds | MYC-tagged FANCI (from UniProt Q9NVI1 1-1328) |
